Test results: US5104492A, “Recovery of carboxylic acids from water by precipitation from organic solutions” (The Regents of the University of California, priority 1990, dated 1992)
Where two headings read alike, the source gives them in different places.

Text: An aqueous solution of fumaric acid was extracted with methyl isobutyl ketone (MIBK).

O=C(O)/C=C/C(=O)O [fumaric acid]
excess acid recovered as a solid precipitate (0.76% H2O, overhead fraction 26.56%): 46.8%
excess acid recovered as a solid precipitate (0.95% H2O, overhead fraction 14.19%): 39.1%
